Measured data: PubChem BioAssay AID1508597 (Cure First, 2020)

- Aim: 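Survival screen with siRNA in ovarian cancer cells derived from patients, with or without rucaparib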 (primary screen)
- Cells: human ovarian carcinoma lines grown from tumours: OCI-P5x (papillary serous) and OCI-C5x (clear cell)
- Reagent: siRNA pool against human genes, 1.25 pmol siRNA per well
- Time to read-out: 72 h or 96 h, depending on the cell culture
- Treatment: rucaparib 20 µM (about IC30) or vehicle, present until read-out
- Rucaparib or vehicle: Vehicle
- Cell line: OCI-P5x (serous)
- Read-out: 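ATP luminescence measured at 72 or 96 h according to the culture, then normalised and expressed as percent viability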
- Reading the numbers: viability, normalised: higher = more viable cells remaining
- Hit rule: 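Active when normalised viability falls below 80 percent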
- Calls: active = viability under 80%; inactive = viability 80% or more
This is an unselected part of the about 2,100 reagents, under one of the conditions tested. 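Calls flag viability under 80% in either arm, not effects specific to rucaparib; the reference for percent is not stated.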 A reagent listed more than once was tested more than once; the source does not tell the runs apart. The record does not give: the 100% reference.

target | technical replicate | viability, normalised (%) | Outcome
RTEL1 (GeneID 51750) | 1 | 64.2 | active
RTEL1 (GeneID 51750) | 2 | 70.8 | active
RTEL1 (GeneID 51750) | 3 | 82.1 | inactive
HAT1 (GeneID 8520) | 1 | 61.1 | active
HAT1 (GeneID 8520) | 2 | 76.2 | active
HAT1 (GeneID 8520) | 3 | 75 | active
ATR (GeneID 545) | 1 | 89.2 | inactive
ATR (GeneID 545) | 1 | 80.8 | inactive
ATR (GeneID 545) | 2 | 79.8 | active
ATR (GeneID 545) | 2 | 74.1 | active
ATR (GeneID 545) | 3 | 82.8 | inactive
ATR (GeneID 545) | 3 | 74.1 | active
NPM2 (GeneID 10361) | 1 | 60.7 | active
NPM2 (GeneID 10361) | 2 | 71.1 | active
NPM2 (GeneID 10361) | 3 | 84.3 | inactive
TREX1 (GeneID 11277) | 1 | 73.8 | active
TREX1 (GeneID 11277) | 2 | 88.5 | inactive
TREX1 (GeneID 11277) | 3 | 58.5 | active
PAK4 (GeneID 10298) | 1 | 106 | inactive
PAK4 (GeneID 10298) | 2 | 90.8 | inactive
PAK4 (GeneID 10298) | 3 | 106 | inactive
PCDHB3 (GeneID 56132) | 1 | 53.1 | active
PCDHB3 (GeneID 56132) | 2 | 62.6 | active
PCDHB3 (GeneID 56132) | 3 | 76 | active

2 of these entries, reformatted:
| target | technical replicate | viability, normalised (%) | Outcome |
| --- | --- | --- | --- |
| TREX1 (GeneID 11277) | 1 | 73.8 | active |
| TREX1 (GeneID 11277) | 2 | 88.5 | inactive |
